The subject of this assay is L1210 leukemia ip in BDF1 mice, survival T/C. Briefly: NCI In Vivo Anticancer Drug Screen. Data for tumor model L1210 Leukemia (intraperitoneal) in B6D2F1 (BDF1) mice. The settings on record: T/C endpoint: mean survival time, higher T/C = longer survival.
The mark [1] stands for this setting: dose: 150.0 mg/kg/injection, schedule: Q01DX001 (ip), vehicle: saline.
The mark [2] stands for this setting: dose: 300.0 mg/kg/injection, schedule: Q01DX001 (ip), vehicle: saline.
[3] abbreviates: dose: 400.0 mg/kg/injection, schedule: Q01DX001 (ip), vehicle: saline.
The mark [4] stands for this setting: dose: 200.0 mg/kg/injection, schedule: Q01DX001 (ip), vehicle: saline.
The mark [5] stands for this setting: dose: 200.0 mg/kg/injection, schedule: Q01DX009 (ip), vehicle: saline.
The mark [6] stands for this setting: dose: 200.0 mg/kg/injection, schedule: Q04DX003 (ip), vehicle: saline.
[7] abbreviates: dose: 400.0 mg/kg/injection, schedule: Q01DX009 (ip), vehicle: saline.
The mark [8] stands for this setting: dose: 400.0 mg/kg/injection, schedule: Q04DX003 (ip), vehicle: Klucel (hydroxypropylcellulose) (HPC).
Where [9] appears, read: dose: 400.0 mg/kg/injection, schedule: Q04DX003 (ip), vehicle: saline.

The list does not hold the whole screen: it is rich in T/C values a quarter to a half above the control, in often repeated tests (any T/C) and in doses without a T/C. Further doses and runs are listed elsewhere. T/C gives the treated animals as a percentage of the vehicle group. Some entries give survivors of the animals treated and no T/C: the source files T/C as zero there, which appears to mark a toxic dose or a test without result, not a measured value. Some survivor counts are full or nearly so, which does not show that the dose was tolerated: the source hardly ever lists a survival T/C far under the control, and the zero likely stands for such cases as well. Survivors were counted at the toxicity check, usually on the fifth day, unless a day is given; later deaths do not show. Schedule codes are those of the source, read here as Q, the interval in days (D) or hours (H), X, the number of doses. Some doses were run more than once; the values are given in rising order.

Take `N#Cc1c(F)c(F)c(C#N)c(F)c1F`: the survivor count runs as follows: (dose: 20.0 mg/kg/injection, schedule: Q01DX001 (ip), vehicle: saline) 1 of 4; (dose: 40.0 mg/kg/injection, schedule: Q01DX001 (ip), vehicle: saline) 1 of 4; (dose: 80.0 mg/kg/injection, schedule: Q01DX001 (ip), vehicle: saline) 0 of 4.

Regarding `CSC(=N)N(C)Cc1ccccc1`, the survivor count under setting [1] is 0 of 6 and the survivor count under setting [2] is given as 0 of 6. Turning to `CC(C)C1SC(=S)NC1=O` (centres undefined), under setting [3], the survivor count is 1 of 6. Turning to `CCc1cccc(CC)c1NC(=O)CS`, the survivor count (dose: 400.0 mg/kg/injection, schedule: Q04DX003 (ip), vehicle: saline with Tween-80) is given as 1 of 6. As to `O=c1oc2c(CN3CCCC3)c(O)ccc2c2c1CCCC2`, the survivor count (dose: 400.0 mg/kg/injection, schedule: Q01DX001 (ip), vehicle: carboxymethylcellulose (CMC)) is given as 0 of 4. Consider `CCN(CC)CCCC(C)Nc1ccnc2cc(Cl)ccc12` (centres undefined), for which the survivor count by setting is: (dose: 100.0 mg/kg/injection, schedule: Q01DX009 (ip), vehicle: saline) 3 of 6; under setting [4], 0 of 4 and 2 of 6; under setting [5], 0 of 6; under setting [6], 1 of 6; under setting [3], 0 of 4. For `Cn1cccc1/C=C/[N+](=O)[O-]`, the survivor count under setting [4] is recorded as 4 of 4 and the survivor count under setting [3] is given as 2 of 4. On to `CC#CCCC(=O)OCCCCC`, for which the survivor count (dose: 400.0 mg/kg/injection, schedule: Q04DX002 (ip), vehicle: saline with Tween-80) was 3 of 3. For `CN(C)CCSSCCN(C)C`, the survivor count under setting [3] is recorded as 1 of 4. As for `CC(C)CC(NC(=O)c1ccccc1)C(N)=O` (centres undefined), the survivor count (dose: 400.0 mg/kg/injection, schedule: Q01DX009 (ip), vehicle: saline with Tween-80) is reported as 6 of 6. As for `CC(=O)CC(=O)Nc1cccc(Cl)c1C`, where the note is “dose: 400.0 mg/kg/injection, schedule: Q01DX009 (ip), vehicle: Klucel (hydroxypropylcellulose) (HPC)”, the survivor count is 1 of 6. As for `COc1cc(NS(C)(=O)=O)ccc1N`, under setting [7], the survivor count is 1 of 6.

`O=C(O)CC(=O)c1ccc(I)cc1`: the survivor count reads like this: under setting [1], 0 of 6; under setting [2], 0 of 6.

As for `O=C(COc1cccc(Cl)c1Cl)Nc1ccc[n+](Cc2ccc(S(=O)(=O)F)cc2)c1`, the survivor count under setting [8] was 1 of 6. As to `CS(=O)(=O)OC12CC3CC(CC(C3)C1)C2`, the survivor count under setting [3] was 3 of 6. In the case of `CC1CCCCN1CCCO` (centres undefined), the survivor count under setting [6] was 0 of 6 and the survivor count under setting [9] was 1 of 6.

Consider `O=C(O)C(=O)CBr`, for which the survivor count (dose: 100.0 mg/kg/injection, schedule: Q04DX003 (ip), vehicle: saline) is reported as 0 of 6; the survivor count under setting [6] is recorded as 0 of 6; the survivor count under setting [9] is given as 0 of 6. Consider `CCCCOc1c(Cl)c(Cl)c(O)c(Cl)c1Cl`, for which the survivor count is 2 of 6 (dose: 200.0 mg/kg/injection, schedule: Q01DX009 (ip), vehicle: acetone) and 2 of 6 under setting [3]. `CN(C)n1cc(C#N)c(=O)[nH]c1=O`: under setting [8], the survivor count was 4 of 6. Regarding `NC(CO)CSCc1ccccc1` (centres undefined), the survivor count is 1 of 6 under setting [5] and 0 of 6 under setting [7].

Values taken from PubChem BioAssay AID248 (DTP/NCI, 2004).
